Data from paper PMC8776970.
No constants are given. Whether binding was seen depends on the method and setting. For part of these data: Binding seen in cells or lysates may run through a third protein. Some binding calls cover weakened binding; strength is not graded here.

Protein sequences, listed by entry. Tags and fused reporters are not part of them.
UniProt P06493: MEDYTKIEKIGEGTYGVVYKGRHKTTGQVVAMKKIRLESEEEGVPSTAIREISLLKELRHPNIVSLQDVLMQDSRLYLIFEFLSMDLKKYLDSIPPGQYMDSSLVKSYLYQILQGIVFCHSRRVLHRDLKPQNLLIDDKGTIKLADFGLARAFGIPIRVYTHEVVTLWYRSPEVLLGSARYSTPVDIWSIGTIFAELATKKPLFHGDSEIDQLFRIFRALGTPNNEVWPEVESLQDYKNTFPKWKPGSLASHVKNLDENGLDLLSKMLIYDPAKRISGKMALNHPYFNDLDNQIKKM
UniProt Q14676: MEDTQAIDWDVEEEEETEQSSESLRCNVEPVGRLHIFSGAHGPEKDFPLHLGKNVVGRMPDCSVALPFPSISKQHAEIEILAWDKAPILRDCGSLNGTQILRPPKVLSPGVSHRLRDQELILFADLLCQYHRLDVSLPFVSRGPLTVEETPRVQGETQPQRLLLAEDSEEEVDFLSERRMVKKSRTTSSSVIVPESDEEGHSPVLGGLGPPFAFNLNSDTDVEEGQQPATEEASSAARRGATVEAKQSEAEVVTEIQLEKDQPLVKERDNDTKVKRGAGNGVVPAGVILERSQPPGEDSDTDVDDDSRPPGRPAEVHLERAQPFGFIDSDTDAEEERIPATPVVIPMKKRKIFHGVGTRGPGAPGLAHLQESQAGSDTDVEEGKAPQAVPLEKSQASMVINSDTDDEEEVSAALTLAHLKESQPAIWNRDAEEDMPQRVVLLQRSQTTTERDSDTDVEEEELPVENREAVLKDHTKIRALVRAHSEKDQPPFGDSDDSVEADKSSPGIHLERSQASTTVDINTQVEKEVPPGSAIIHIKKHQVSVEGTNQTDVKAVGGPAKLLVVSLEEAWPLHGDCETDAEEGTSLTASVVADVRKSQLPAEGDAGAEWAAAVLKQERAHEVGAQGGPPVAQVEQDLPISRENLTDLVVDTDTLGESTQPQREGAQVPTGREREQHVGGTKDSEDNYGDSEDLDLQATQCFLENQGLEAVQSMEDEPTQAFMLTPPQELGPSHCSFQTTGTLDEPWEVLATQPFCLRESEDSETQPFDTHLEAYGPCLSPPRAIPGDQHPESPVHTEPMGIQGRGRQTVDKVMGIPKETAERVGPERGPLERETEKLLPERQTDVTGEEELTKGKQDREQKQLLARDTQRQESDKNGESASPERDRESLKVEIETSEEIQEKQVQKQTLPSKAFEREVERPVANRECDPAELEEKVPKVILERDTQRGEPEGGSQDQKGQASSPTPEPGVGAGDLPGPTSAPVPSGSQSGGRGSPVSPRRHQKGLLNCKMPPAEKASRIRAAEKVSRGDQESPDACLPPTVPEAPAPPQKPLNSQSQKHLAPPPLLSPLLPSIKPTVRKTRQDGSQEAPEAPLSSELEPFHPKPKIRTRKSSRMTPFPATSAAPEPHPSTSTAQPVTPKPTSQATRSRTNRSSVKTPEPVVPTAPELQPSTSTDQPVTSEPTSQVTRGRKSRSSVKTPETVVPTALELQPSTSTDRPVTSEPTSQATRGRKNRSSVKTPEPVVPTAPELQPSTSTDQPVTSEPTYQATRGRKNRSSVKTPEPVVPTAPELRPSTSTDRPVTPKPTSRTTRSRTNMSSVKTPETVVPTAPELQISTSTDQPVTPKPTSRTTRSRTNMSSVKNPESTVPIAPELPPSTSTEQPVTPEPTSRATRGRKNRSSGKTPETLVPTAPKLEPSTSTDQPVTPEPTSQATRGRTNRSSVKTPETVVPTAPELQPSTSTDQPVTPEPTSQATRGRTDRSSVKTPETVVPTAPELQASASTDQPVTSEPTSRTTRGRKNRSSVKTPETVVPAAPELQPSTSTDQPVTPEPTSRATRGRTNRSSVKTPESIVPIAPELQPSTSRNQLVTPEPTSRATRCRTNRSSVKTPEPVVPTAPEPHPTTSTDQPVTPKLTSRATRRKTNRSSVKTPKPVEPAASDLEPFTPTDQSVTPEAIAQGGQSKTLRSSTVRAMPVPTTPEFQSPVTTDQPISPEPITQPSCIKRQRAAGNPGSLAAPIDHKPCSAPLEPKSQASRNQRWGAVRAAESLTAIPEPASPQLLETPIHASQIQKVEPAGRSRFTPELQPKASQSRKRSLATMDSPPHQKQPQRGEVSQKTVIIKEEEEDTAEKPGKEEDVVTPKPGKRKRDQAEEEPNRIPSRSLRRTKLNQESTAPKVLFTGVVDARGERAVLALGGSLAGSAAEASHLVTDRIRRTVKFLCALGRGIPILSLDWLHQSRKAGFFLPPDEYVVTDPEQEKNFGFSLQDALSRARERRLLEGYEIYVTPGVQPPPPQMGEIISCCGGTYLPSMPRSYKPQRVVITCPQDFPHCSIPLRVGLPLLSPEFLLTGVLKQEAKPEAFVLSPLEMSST
UniProt Q8N884: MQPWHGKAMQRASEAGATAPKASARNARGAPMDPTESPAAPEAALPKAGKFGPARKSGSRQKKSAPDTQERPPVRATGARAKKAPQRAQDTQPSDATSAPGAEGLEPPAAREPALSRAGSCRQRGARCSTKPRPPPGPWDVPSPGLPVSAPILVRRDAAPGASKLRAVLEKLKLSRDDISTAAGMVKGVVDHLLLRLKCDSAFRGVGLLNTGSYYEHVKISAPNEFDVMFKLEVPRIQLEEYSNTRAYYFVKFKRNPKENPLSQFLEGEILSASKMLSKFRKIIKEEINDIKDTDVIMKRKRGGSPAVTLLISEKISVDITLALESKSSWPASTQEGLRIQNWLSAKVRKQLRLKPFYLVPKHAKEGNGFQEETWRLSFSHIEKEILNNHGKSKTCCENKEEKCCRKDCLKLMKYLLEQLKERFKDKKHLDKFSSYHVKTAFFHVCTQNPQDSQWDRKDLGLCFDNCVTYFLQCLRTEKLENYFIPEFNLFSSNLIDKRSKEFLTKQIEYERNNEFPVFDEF

Assays:
mCherry-CDK1 = mCherry-CDK1 (UniProt P06493); test: pull-down; purified GFP-cGAS incubated with purified mCherry-CDK1 and mCherry-beads in RIPA buffer (1% NP-40, 0.25% sodium deoxycholate, 50 mmol/L Tris-HCl pH 7.4, 150 mmol/L NaCl) overnight at 4 °C; immunoblot with anti-GFP and anti-mCherry; both purified
[1] = biological target: exogenously expressed CDK1 (UniProt P06493); test: co-IP; exogenously expressed CDK1 precipitated from mitotic U2OS cells (Fig. S5A)
[2] = biological target: CDK1, endogenous (human (endogenous in U2OS, HeLa, 293T)) (UniProt P06493); test: co-IP; endogenous CDK1 precipitated with CDK1 antibody and Protein A/G beads from mitotic U2OS lysate; RIPA buffer; IgG as control
[3] = biological target: CDK1, endogenous (human (endogenous in U2OS, HeLa, 293T)) (UniProt P06493); test: co-IP; HeLa cell lysate (Fig. S5B); RIPA buffer, primary antibody and Protein A/G beads
GFP-MDC1 [4] = biological target: GFP-MDC1 (UniProt Q14676); test: condition: only mitotic control (Scr) U2OS cells in which cGAS is not depleted; co-IP; GFP-MDC1 precipitated with GFP-beads from mitotic control (Scr) U2OS cells cultured with SCR7; RIPA buffer; RNF8 by immunoblot
GFP-MDC1 [5] = biological target: GFP-MDC1 (UniProt Q14676); test: co-IP; GFP-MDC1 precipitated with GFP-beads from mitotic cGAS-deficient (gcGAS-1) U2OS cells cultured with SCR7; RIPA buffer; RNF8 by immunoblot

Molecule: GFP-cGAS protein (purified) (from UniProt Q8N884 1-522)
- binding (mCherry-CDK1): binds

Molecule: cyclic GMP-AMP synthase (cGAS), endogenous (from UniProt Q8N884 1-522)
- binding [1]: binds
- binding [2]: binds
- binding [3]: binds

B1: RNF8 (protein, UniProt O76064 1-485)
chain: MGEPGFFVTGDRAGGRSWCLRRVGMSAGWLLLEDGCEVTVGRGFGVTYQLVSKICPLMISRNHCVLKQNPEGQWTIMDNKSLNGVWLNRARLEPLRVYSIHQGDYIQLGVPLENKENAEYEYEVTEEDWETIYPCLSPKNDQMIEKNKELRTKRKFSLDELAGPGAEGPSNLKSKINKVSCESGQPVKSQGKGEVASTPSDNLDPKLTALEPSKTTGAPIYPGFPKVTEVHHEQKASNSSASQRSLQMFKVTMSRILRLKIQMQEKHEAVMNVKKQTQKGNSKKVVQMEQELQDLQSQLCAEQAQQQARVEQLEKTFQEEEQHLQGLEIAQGEKDLKQQLAQALQEHWALMEELNRSKKDFEAIIQAKNKELEQTKEEKEKMQAQKEEVLSHMNDVLENELQCIICSEYFIEAVTLNCAHSFCSYCINEWMKRKIECPICRKDIKSKTYSLVLDNCINKMVNNLSSEVKERRIVLIRERKAKRLF
- binding (GFP-MDC1 [4]): no binding
- binding (GFP-MDC1 [5]): binds
